Step yield and conjugation yield data for three substances are collected here from patent publication US20260241021A1 (priority 2023, published 2026).

This series in a line: general procedure: solution-phase peptide synthesis; HATU.

Substance Boc-GGFG-PAB (COOtBu)-PNP showed a step yield (late stage modification step) of 46.2%.
Substance Boc-GGVC-PAB (COOtBu)-Exatecan registered a step yield (coupling step) of 65.9%.
Substance Boc-GGFG-PAB (COOtBu) had a conjugation yield (conjugation step) of 98.9%.
